PubChem BioAssay AID743454 | Peter MacCallum Cancer Centre, 2014
The deposit covers about 18,000 reagents; this is a part drawn at random. In the full data, 450 (2.5%) got an active call. 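Single biological run; no consistent viability z cut-off exists, so the class columns, not z-scores, define the calls.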

Assay: 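Search for knock-downs that restore vorinostat killing in resistant colon cancer cells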 (primary screen)
System: human HCT116-VR colon cancer cells, selected for vorinostat resistance
Knock-down reagent: siRNA pool against human genes, 40 nM siRNA pool
Duration: vorinostat for 24 h, read-out about 72 h after transfection
Treatment: vorinostat at 2.5 µM final
Read-out: 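Cell viability by CellTiter-Fluor and caspase 3/7 activity by luminescence, each scaled to mock wells per plate, duplicates averaged, then robust z-scored over all plates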
Reading the numbers: viability robust z-score: higher = more viable cells than screen typical; caspase robust z-score: higher = more caspase 3/7 activity than screen typical
Rule for the call: 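Hits are knock-downs in viability class RV1/RV2 or caspase class CA1/CA2, excluding ones that killed cells in the no-drug cell-count arm; hits then retested with single siRNAs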

| target | viability hit class | caspase hit class | viability robust z-score | caspase robust z-score | Outcome |
| --- | --- | --- | --- | --- | --- |
| DUSP16 (dual specificity phosphatase 16) | no change | no change | 0.39 | 0.31 | inactive |
| TPD52L3 (TPD52 like 3) | no change | no change | 1.21 | 0.4 | inactive |
| DACT1 (dishevelled binding antagonist of beta catenin 1) | no change | no change | -0.06 | 1.96 | inactive |
| CSNK1G2-AS1 (CSNK1G2 antisense RNA 1) | no change | no change | -0.09 | -1 | inactive |
| HOXA9 (homeobox A9) | no change | no change | 0.4 | 0.4 | inactive |
| KLHDC8A (kelch domain containing 8A) | no change | no change | -0.06 | -0.38 | inactive |
| NBR1 (NBR1 autophagy cargo receptor) | no change | no change | -0.55 | 0.73 | inactive |
| CCL26 (C-C motif chemokine ligand 26) | no change | no change | -1.63 | 1.75 | inactive |
| TUT4 (terminal uridylyl transferase 4) | no change | no change | 0.62 | -0.4 | inactive |
| TMCC2 (transmembrane and coiled-coil domain family 2) | no change | no change | 1.34 | 2.72 | inactive |
| CSN3 (casein kappa) | no change | no change | -0.84 | 0.35 | inactive |
| FABP3 (fatty acid binding protein 3) | no change | no change | -0.3 | -0.25 | inactive |
| OXSM (3-oxoacyl-ACP synthase, mitochondrial) | no change | no change | -2.66 | -0.33 | inactive |
| XIAP (X-linked inhibitor of apoptosis) | no change | no change | 0.53 | -0.18 | inactive |
| CPEB1 (cytoplasmic polyadenylation element binding protein 1) | no change | no change | -0.99 | 1.89 | inactive |
| KCTD3 (potassium channel tetramerization domain containing 3) | no change | no change | -0.87 | 4.83 | inactive |
| KRTAP19-6 (keratin associated protein 19-6) | no change | no change | -1.37 | 3.6 | inactive |
| ADAM29 (ADAM metallopeptidase domain 29) | no change | no change | -2.48 | 1.26 | inactive |
| TUT7 (terminal uridylyl transferase 7) | no change | no change | -0.24 | -0.02 | inactive |
| ITM2B (integral membrane protein 2B) | no change | no change | 0.94 | 0.49 | inactive |
| RRP7A (ribosomal RNA processing 7 homolog A) | no change | no change | -0.98 | -1.09 | inactive |
| FMN2 (formin 2) | no change | no change | 1.34 | 1.16 | inactive |
| NCSTN (nicastrin) | no change | no change | -0.32 | -0.6 | inactive |

3 neighbouring entries from above, quoted:
| target | viability hit class | caspase hit class | viability robust z-score | caspase robust z-score | Outcome |
| --- | --- | --- | --- | --- | --- |
| FABP3 (fatty acid binding protein 3) | no change | no change | -0.3 | -0.25 | inactive |
| OXSM (3-oxoacyl-ACP synthase, mitochondrial) | no change | no change | -2.66 | -0.33 | inactive |
| XIAP (X-linked inhibitor of apoptosis) | no change | no change | 0.53 | -0.18 | inactive |
